Some results were stated once for a whole list of compounds, not compound by compound. At least one structure is not confirmed: it was looked up by name or label, or the drawing left a doubt.
Tested on: HEK293 cells
Assay: Viability assay of HEK293 cells (CellTiter-Glo)
Format: cell-based, human
Settings: 7 days, 3 μM to 0.00015 μM, luminescence
Experimental: Viability Assay of HEK293 Cells
A viability assay was performed using the CellTiter-Glo™ Luminescent Cell Viability Assay (see Promega Corporation's Technical Publication No. 288, pp. 1-11 [revised 2.04] which is hereby incorporated by reference in its entirety). This assay is a homogeneous method of determining the number of viable cells in culture based on quantitation of the ATP present, which signals the presence of metabolically active cells. The assay is designed for use with multiwell formats, making it ideal for automated high-throughput screening (HTS), cell proliferation and cytotoxicity assays. The homogeneous assay procedure involves adding a single reagent (containing luciferase, luciferan substrate, and buffer) directly to cells cultured in serum-supplemented medium. Cell washing, removal of medium and multiple pipetting steps are not required. The system detects as few as 15 cells/well in a 384-well format in 10 minutes after adding reagent and mixing.
The homogeneous “add-mix-measure” format results in cell lysis and generation of a luminescent signal proportional to the amount of ATP present. The amount of ATP is directly proportional to the number of cells present in culture. […]

Work on `Cc1nnc(NS(=O)(=O)c2ccc(NC(=O)c3coc(COc4ccc(CCCCn5ccnn5)cc4)n3)cc2)s1` [Example 16, 2-[4-(4-[1,2,3]Triazol-1-yl-butyl)-phenoxymethyl]-oxazole-4-carboxylic acid [4-(5-methyl-thiadiazol-2-ylsulfamoyl)-phenyl]-amide] yielded an IC50 of 500 to 3000 nM.

Source: patent US20060116407A1, “Amide derivatives” (priority 2004, published 2006)
